Measurements taken from patent US5951473A, “Determination of intracellular sodium and potassium ions by NMR” (Board of Regents, The University of Texas System, priority 1997, dated 1999).

Test system: ^23 Na in rat liver
Assay: ^23 Na T1 and T2 relaxation measurements in rat liver with shift reagent present
Format: in vivo
Settings: Table I

Substance: thulium(III) 1,4,7,10-tetraazacyclododecane-1,4,7,10-tetrakis (methylene phosphonate) [TmDOTP^5-]
- T2(fast), intracellular (intracellular): 1.3 ± 0.1
- T2(slow), shifted peak (shifted peak): 10.0 ± 2.8

The amount applied is not stated for every result.
